For the data set, the target named is Transferrin receptor (TfR) (human) (UniProt P02786). Briefly: activity in cells. Particulars: carrier-free internalization into HeLa cells by fluorescence microscopy; protein on the cell surface; protein details: endogenous on HeLa cells; dose not given here.

“GGGGGAUCAAUCCAAGGGACCCGGAAACGCUCCCUUACACCCC [circular RNA with C2.min aptamer]”: the “functional effect of the aptamer” value is reported as “active”. In the case of “GGGUGAAUGGUUCUACGAUAAACGUUAAUGACCAGCUUAUGGCUGGCAGUUCCUAUAGCACCC [circular RNA with 36a aptamer]”, the “functional effect of the aptamer” value is recorded as “active”.
